The supplement of paper PMC6411743
± gives the standard deviation of the averaged measurements. The list shows a part of the results, in another mix than the full data.

The chains behind the UniProt entries cited, without tags or fusion partners. Where a name states a change or a piece, a line headed by the entry shows the natural chain unless it says otherwise.
UniProt Q04917: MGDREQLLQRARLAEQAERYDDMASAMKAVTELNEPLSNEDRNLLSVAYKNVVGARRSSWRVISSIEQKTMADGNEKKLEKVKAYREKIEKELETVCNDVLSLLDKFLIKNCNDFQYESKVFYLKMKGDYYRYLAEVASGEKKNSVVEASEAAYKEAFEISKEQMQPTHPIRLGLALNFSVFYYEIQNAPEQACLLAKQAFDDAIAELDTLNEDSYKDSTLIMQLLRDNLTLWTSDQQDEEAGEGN
UniProt Q13951, whole entry: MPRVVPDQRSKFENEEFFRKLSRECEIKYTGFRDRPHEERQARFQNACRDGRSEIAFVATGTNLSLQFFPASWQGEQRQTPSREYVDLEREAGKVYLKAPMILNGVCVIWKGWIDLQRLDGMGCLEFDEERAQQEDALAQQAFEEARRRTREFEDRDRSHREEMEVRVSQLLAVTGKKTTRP
UniProt Q13107: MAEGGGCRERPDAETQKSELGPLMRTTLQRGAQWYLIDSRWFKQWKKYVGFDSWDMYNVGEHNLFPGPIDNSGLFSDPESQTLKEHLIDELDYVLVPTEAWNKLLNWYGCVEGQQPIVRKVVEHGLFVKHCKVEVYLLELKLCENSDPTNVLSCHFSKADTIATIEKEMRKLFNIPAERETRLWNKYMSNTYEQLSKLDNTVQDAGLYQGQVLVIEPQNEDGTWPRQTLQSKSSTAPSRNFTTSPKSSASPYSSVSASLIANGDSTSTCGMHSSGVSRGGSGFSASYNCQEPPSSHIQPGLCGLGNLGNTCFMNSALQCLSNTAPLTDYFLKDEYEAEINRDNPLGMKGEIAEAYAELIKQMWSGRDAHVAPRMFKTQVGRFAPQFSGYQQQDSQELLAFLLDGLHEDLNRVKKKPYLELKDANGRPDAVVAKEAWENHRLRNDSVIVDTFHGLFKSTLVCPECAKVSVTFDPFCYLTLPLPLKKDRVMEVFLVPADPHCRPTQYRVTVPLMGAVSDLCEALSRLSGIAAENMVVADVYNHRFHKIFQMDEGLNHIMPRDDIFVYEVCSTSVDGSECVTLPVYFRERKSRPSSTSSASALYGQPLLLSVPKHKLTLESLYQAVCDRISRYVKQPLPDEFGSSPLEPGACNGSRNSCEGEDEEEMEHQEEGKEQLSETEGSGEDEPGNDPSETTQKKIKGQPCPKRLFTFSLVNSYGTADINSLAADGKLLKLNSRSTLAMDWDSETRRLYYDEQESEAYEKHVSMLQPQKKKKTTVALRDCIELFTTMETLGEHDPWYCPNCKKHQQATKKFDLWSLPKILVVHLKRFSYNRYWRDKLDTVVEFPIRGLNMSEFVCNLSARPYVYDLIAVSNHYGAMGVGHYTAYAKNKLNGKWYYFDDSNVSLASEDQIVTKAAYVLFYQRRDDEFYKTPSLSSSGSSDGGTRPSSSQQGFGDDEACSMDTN
UniProt Q01167: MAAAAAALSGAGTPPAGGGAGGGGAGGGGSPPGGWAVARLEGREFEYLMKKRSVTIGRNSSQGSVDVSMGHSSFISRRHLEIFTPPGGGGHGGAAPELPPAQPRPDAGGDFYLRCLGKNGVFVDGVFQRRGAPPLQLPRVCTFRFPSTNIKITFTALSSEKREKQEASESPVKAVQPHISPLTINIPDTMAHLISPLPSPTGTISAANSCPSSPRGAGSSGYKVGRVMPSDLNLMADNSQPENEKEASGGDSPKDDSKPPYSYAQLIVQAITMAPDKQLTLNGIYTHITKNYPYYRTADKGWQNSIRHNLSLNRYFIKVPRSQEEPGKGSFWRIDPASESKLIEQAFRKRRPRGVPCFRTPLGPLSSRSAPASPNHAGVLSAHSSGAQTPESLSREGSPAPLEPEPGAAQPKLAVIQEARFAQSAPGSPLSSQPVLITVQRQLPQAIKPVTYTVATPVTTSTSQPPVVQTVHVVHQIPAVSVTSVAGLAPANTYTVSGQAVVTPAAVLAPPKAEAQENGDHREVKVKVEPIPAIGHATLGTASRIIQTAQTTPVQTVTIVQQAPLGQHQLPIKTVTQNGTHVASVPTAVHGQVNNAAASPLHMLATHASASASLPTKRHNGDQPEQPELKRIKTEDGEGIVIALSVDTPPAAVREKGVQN
UniProt Q00839, whole entry: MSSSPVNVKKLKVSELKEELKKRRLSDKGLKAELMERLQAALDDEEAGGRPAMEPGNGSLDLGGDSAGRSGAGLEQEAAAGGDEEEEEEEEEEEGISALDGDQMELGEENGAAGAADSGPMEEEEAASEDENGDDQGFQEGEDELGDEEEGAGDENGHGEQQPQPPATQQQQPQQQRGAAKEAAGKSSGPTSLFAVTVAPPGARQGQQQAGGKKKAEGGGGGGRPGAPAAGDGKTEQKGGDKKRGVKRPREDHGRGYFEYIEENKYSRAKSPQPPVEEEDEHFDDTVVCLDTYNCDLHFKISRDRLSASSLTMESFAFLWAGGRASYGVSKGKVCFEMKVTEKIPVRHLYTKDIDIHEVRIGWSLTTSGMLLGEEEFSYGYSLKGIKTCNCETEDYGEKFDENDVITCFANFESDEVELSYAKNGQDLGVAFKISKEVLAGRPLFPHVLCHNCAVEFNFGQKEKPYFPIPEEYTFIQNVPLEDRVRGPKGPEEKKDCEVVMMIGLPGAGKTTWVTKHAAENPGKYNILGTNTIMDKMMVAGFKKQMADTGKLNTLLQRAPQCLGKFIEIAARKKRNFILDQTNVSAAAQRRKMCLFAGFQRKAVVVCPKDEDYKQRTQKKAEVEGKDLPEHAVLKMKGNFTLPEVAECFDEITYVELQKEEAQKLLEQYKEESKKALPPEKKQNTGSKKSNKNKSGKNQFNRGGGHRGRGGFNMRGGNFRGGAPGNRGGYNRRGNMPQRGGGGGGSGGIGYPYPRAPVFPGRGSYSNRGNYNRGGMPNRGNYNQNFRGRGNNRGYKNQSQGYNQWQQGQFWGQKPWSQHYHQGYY
UniProt Q02127: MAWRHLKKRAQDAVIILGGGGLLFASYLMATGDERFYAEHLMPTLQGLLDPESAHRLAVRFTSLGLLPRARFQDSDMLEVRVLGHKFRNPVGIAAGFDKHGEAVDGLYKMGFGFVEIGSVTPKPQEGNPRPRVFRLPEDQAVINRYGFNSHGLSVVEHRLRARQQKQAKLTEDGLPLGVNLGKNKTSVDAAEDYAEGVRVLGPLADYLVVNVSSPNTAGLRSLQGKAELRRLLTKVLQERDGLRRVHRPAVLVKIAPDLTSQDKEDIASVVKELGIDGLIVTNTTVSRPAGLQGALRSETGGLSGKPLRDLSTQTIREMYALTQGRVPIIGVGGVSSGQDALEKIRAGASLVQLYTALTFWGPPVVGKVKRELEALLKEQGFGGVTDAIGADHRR
UniProt Q01664: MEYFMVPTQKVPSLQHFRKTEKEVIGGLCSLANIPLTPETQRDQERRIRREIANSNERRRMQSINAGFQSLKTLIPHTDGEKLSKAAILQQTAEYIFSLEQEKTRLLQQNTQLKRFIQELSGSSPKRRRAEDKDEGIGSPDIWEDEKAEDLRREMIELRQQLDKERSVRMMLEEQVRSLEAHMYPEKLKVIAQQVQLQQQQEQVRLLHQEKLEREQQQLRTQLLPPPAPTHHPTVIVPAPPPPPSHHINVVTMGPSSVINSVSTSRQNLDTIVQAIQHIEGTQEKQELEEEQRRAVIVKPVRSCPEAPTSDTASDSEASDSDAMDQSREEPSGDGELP
UniProt Q09028, whole entry: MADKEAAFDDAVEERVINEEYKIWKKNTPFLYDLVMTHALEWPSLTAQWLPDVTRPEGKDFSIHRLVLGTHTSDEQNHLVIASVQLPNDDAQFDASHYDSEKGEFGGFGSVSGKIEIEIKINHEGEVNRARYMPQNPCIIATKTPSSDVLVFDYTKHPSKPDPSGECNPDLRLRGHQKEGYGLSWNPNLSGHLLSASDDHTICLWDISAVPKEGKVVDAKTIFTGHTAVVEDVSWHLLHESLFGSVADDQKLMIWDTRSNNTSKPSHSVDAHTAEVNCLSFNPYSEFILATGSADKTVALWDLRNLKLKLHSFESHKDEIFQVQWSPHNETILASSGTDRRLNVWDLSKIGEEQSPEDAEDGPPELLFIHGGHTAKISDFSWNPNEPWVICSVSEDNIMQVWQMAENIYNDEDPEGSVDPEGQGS
UniProt Q12959, whole entry, looked up: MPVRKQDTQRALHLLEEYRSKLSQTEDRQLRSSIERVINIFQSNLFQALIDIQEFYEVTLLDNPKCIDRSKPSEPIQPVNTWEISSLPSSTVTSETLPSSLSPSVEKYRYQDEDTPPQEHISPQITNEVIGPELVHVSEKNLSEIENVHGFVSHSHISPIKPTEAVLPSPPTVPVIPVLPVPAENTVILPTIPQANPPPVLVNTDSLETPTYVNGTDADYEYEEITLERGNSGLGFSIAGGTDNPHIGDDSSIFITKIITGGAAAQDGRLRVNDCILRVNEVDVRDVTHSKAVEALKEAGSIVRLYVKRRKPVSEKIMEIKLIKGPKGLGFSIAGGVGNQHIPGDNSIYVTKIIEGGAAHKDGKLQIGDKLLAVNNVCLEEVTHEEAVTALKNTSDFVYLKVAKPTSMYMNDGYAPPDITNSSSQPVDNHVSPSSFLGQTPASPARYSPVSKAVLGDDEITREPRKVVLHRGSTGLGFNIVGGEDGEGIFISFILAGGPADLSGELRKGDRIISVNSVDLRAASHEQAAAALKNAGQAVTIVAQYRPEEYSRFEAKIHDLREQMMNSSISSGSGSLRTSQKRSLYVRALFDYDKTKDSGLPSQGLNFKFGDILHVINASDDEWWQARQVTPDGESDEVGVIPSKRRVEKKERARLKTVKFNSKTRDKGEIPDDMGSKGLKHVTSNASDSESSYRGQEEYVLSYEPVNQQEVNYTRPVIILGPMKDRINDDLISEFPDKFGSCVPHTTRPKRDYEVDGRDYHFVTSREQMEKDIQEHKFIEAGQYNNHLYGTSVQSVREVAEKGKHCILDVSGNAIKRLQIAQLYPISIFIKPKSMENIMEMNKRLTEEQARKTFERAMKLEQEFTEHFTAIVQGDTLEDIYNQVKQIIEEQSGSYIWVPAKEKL
UniProt Q02809: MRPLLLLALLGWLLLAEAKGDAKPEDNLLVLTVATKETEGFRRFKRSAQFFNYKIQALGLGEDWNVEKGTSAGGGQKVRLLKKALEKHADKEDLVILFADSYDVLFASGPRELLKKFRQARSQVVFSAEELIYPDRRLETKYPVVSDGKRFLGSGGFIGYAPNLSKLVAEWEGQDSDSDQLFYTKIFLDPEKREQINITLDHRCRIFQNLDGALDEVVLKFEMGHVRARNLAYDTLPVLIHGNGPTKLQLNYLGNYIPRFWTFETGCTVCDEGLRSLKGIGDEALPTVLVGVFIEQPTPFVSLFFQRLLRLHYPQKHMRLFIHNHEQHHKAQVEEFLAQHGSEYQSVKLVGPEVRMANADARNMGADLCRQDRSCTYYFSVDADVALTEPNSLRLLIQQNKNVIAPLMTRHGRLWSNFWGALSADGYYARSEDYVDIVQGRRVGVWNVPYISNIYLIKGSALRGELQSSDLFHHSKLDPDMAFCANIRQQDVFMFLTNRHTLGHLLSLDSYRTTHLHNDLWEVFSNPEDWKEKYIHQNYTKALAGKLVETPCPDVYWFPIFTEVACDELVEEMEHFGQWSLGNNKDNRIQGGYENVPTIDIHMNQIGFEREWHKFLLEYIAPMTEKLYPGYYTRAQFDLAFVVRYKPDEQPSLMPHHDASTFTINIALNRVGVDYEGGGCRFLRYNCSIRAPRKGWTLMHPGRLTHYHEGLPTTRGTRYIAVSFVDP
UniProt Q13043: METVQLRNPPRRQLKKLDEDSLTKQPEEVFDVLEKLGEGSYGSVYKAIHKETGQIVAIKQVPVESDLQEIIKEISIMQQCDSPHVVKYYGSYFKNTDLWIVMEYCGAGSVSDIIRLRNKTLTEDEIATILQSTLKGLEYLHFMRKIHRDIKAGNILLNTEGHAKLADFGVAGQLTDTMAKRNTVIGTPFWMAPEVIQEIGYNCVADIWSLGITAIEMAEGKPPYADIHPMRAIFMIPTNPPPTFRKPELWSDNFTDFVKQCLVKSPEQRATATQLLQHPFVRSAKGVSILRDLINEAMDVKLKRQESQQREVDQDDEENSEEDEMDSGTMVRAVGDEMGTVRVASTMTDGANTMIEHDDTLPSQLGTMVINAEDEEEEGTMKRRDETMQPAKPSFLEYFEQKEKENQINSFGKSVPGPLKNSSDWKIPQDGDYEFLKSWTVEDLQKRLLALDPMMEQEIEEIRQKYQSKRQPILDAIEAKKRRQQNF
UniProt Q6P1K8: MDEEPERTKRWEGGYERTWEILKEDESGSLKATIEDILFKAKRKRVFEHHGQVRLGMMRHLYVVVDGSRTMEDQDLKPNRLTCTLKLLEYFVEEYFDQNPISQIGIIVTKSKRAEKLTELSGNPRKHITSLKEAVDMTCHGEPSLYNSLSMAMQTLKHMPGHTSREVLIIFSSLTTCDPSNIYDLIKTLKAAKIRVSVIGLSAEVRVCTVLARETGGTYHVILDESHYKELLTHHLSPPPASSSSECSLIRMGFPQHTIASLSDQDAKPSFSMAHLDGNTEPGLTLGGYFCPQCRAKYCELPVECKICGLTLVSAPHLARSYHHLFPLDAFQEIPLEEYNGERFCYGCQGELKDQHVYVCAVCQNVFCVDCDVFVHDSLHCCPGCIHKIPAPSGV

Compound: Nc1ncnc2c1ncn2[C@@H]1O[C@H](COP(=O)(O)OP(=O)(O)OP(=O)(O)O)[C@@H](O)[C@H]1O [adenosine triphosphate]
Experiment: NP40-soluble protein abundance relative to vehicle (solubility fold change) (ratio); higher = more soluble protein in presence of ATP
Procedure, shortened: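 Each value is a fold change relative to the detergent-processed vehicle, calculated per replicate from vsn-normalised intensities. Jurkat crude lysate received eight concentrations (0.1 to 10 mM) for 10 min at room temperature and 3 min at 37 °C, then was solubilised in 0.8% NP40 with benzonase (60 min, 4 °C). The ultracentrifuged supernatant was TMT-labelled and run by LC-MS/MS in three independent experiments.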

Target	NP40-soluble protein abundance (concentration: 1mM)	NP40-soluble protein abundance (concentration: 2mM)	NP40-soluble protein abundance (concentration: 4mM)	NP40-soluble protein abundance (concentration: 6mM)	NP40-soluble protein abundance (concentration: 8mM)	NP40-soluble protein abundance (concentration: 10mM)
UniProt Q13625 and related entries	0.98 ± 0.023	0.986 ± 0.017	0.969 ± 0.024	1 ± 0.024	0.951 ± 0.041	0.979 ± 0.015
SF3A3 (UniProt Q12874)	1.09 ± 0.039	1.093 ± 0.0065	1.082 ± 0.0097	1.15 ± 0.019	1.13 ± 0.02	1.1 ± 0.034
YWHAH (UniProt Q04917)	0.808 ± 0.19	0.864 ± 0.019	0.708 ± 0.12	0.892 ± 0.047	0.893 ± 0.041	0.77 ± 0.044
UniProt Q13951-2|Q13951	0.97 ± 0.044	0.96 ± 0.042	0.977 ± 0.02	1.02 ± 0.052	0.984 ± 0.027	1 ± 0.028
UniProt Q02543 and related entries	0.954 ± 0.073	0.861 ± 0.14	0.823 ± 0.14	0.802 ± 0.18	0.653 ± 0.17	0.869 ± 0.18
UniProt Q13557-12|D6R938 and related entries	1.05 ± 0.15	1.05 ± 0.086	1.1 ± 0.13	1.1 ± 0.061	1.14 ± 0.088	1.05 ± 0.11
CKAP4 (UniProt Q07065)	1.05 ± 0.054	1.03 ± 0.028	1.1 ± 0.045	1.17 ± 0.075	1.09 ± 0.021	1.06 ± 0.029
UniProt Q13363 and related entries	1.05 ± 0.1	1.05 ± 0.12	1.03 ± 0.086	0.992 ± 0.16	1.05 ± 0.087	1.06 ± 0.11
UniProt Q04727 and related entries	0.937 ± 0.033	0.909 ± 0.025	0.808 ± 0.13	0.877 ± 0.043	0.796 ± 0.13	0.778 ± 0.12
USP4 (UniProt Q13107)	1 ± 0.022	1.02 ± 0.035	1 ± 0.074	0.968 ± 0.021	0.984 ± 0.02	0.989 ± 0.025
FOXK2 (UniProt Q01167)	1.01 ± 0.039	1.01 ± 0.044	0.994 ± 0.042	1.03 ± 0.044	0.97 ± 0.054	1.01 ± 0.03
UniProt Q13595 and related entries	1.24 ± 0.082	1.29 ± 0.19	1.42 ± 0.18	1.43 ± 0.31	1.44 ± 0.25	1.56 ± 0.29
IQGAP2 (UniProt Q13576)	1.05 ± 0.047	1.04 ± 0.039	1.02 ± 0.028	1.01 ± 0.041	1.04 ± 0.021	1.03 ± 0.027
UniProt Q12789 and related entries	1.08 ± 0.092	1.05 ± 0.049	1.05 ± 0.03	1.02 ± 0.017	1.08 ± 0.013	1.06 ± 0.054
BLMH (UniProt Q13867)	1 ± 0.1	0.973 ± 0.086	0.942 ± 0.09	0.9 ± 0.12	0.996 ± 0.046	0.95 ± 0.062
UniProt Q14141	0.9784 ± 0.0063	0.945 ± 0.029	0.92 ± 0.017	0.958 ± 0.045	0.932 ± 0.037	0.917 ± 0.058
UniProt Q00839 and related entries	1.07 ± 0.13	0.966 ± 0.2	0.999 ± 0.11	1.11 ± 0.35	1.18 ± 0.073	0.989 ± 0.2
VAC14 (UniProt Q08AM6)	1.03 ± 0.024	0.973 ± 0.024	0.978 ± 0.027	0.967 ± 0.042	0.99 ± 0.02	0.978 ± 0.016
STX4 (UniProt Q12846)	0.975 ± 0.042	0.993 ± 0.035	0.981 ± 0.016	0.998 ± 0.032	0.969 ± 0.035	0.96 ± 0.036
UniProt Q02410 and related entries	0.89 ± 0.26	0.982 ± 0.022	0.941 ± 0.12	1.03 ± 0.046	0.928 ± 0.14	1.04 ± 0.089
UniProt Q13838 and related entries	0.927 ± 0.076	0.913 ± 0.078	0.943 ± 0.051	0.932 ± 0.12	1.04 ± 0.074	1.04 ± 0.072
UniProt Q01105-2	0.866 ± 0.11	0.911 ± 0.037	0.859 ± 0.17	0.813 ± 0.3	0.873 ± 0.047	0.734 ± 0.096
SCARB2 (UniProt Q14108)	0.928 ± 0.066	0.933 ± 0.017	0.923 ± 0.017	0.928 ± 0.008	0.901 ± 0.035	0.85 ± 0.051
UniProt Q02750	0.949 ± 0.018	0.984 ± 0.042	0.951 ± 0.028	0.956 ± 0.034	0.926 ± 0.021	0.951 ± 0.043
DHODH (UniProt Q02127)	1.02 ± 0.019	0.9924 ± 0.0012	0.987 ± 0.027	0.95 ± 0.067	0.972 ± 0.015	0.974 ± 0.05
DNAJC3 (UniProt Q13217)	0.977 ± 0.031	1.001 ± 0.0099	0.955 ± 0.018	0.995 ± 0.025	0.963 ± 0.0096	0.964 ± 0.015
ALDH6A1 (UniProt Q02252)	0.988 ± 0.04	0.979 ± 0.034	0.958 ± 0.029	0.968 ± 0.041	0.959 ± 0.023	0.964 ± 0.029

Target	NP40-soluble protein abundance (concentration: 1mM)	NP40-soluble protein abundance (concentration: 2mM)	NP40-soluble protein abundance (concentration: 4mM)	NP40-soluble protein abundance (concentration: 6mM)	NP40-soluble protein abundance (concentration: 8mM)	NP40-soluble protein abundance (concentration: 10mM)
TRIM32 (UniProt Q13049)	0.984 ± 0.034	0.98 ± 0.028	0.988 ± 0.032	0.969 ± 0.053	1.03 ± 0.027	1.06 ± 0.021
UniProt Q13561 and related entries	0.966 ± 0.058	0.934 ± 0.048	0.927 ± 0.06	0.968 ± 0.15	0.938 ± 0.068	0.873 ± 0.045
MGAT2 (UniProt Q10469)	1.11 ± 0.11	1.03 ± 0.011	1.06 ± 0.024	1.01 ± 0.012	1.01 ± 0.035	1.02 ± 0.035
TFAP4 (UniProt Q01664)	1.01 ± 0.079	0.966 ± 0.074	0.931 ± 0.049	0.937 ± 0.059	0.927 ± 0.066	0.84 ± 0.091
UniProt Q14103-3|Q14103-4|D6RF44	0.992 ± 0.071	0.933 ± 0.062	0.894 ± 0.091	0.941 ± 0.072	0.932 ± 0.017	0.942 ± 0.021
UniProt Q12800 and related entries	0.991 ± 0.16	1.03 ± 0.093	1.02 ± 0.096	0.952 ± 0.12	1.02 ± 0.11	1.06 ± 0.088
UniProt Q09028-2|Q09028-3|Q09028	1.06 ± 0.084	0.997 ± 0.027	0.973 ± 0.027	1.02 ± 0.025	1 ± 0.023	0.986 ± 0.03
UniProt Q04726-3|Q04726-7|H0YKT5 and related entries	0.977 ± 0.027	0.969 ± 0.028	0.943 ± 0.022	0.948 ± 0.056	0.937 ± 0.047	0.938 ± 0.045
TARBP1 (UniProt Q13395)	1.02 ± 0.06	1.058 ± 0.0072	1.059 ± 0.0099	0.943 ± 0.06	1.034 ± 0.0019	1.08 ± 0.045
UniProt Q12959-3|Q12959-2|Q12959-4	0.982 ± 0.024	0.989 ± 0.031	0.962 ± 0.05	0.966 ± 0.045	0.961 ± 0.052	0.98 ± 0.027
TWF1 (UniProt Q12792)	1.02 ± 0.045	1 ± 0.037	0.994 ± 0.062	0.963 ± 0.044	0.997 ± 0.06	0.986 ± 0.025
UniProt Q04864-2	0.981 ± 0.03	1.007 ± 0.0057	0.987 ± 0.028	0.9753 ± 0.0086	0.967 ± 0.033	0.974 ± 0.013
UniProt Q01085 and related entries	0.974 ± 0.031	0.984 ± 0.043	0.97 ± 0.054	0.968 ± 0.054	1.02 ± 0.082	0.957 ± 0.067
UniProt Q14005 and related entries	0.984 ± 0.081	1 ± 0.038	0.979 ± 0.078	0.988 ± 0.063	0.956 ± 0.06	0.972 ± 0.035
UniProt Q14004 and related entries	1.23 ± 0.048	1.25 ± 0.044	1.23 ± 0.047	1.27 ± 0.029	1.25 ± 0.062	1.26 ± 0.034
CEBPZ (UniProt Q03701)	1.04 ± 0.028	1.05 ± 0.056	1.14 ± 0.015	1.21 ± 0.016	1.21 ± 0.013	1.32 ± 0.024
LGALS3BP (UniProt Q08380)	1.02 ± 0.092	0.964 ± 0.063	0.963 ± 0.12	0.956 ± 0.16	0.965 ± 0.12	0.944 ± 0.087
UniProt Q02809 and related entries	1.1 ± 0.015	1.02 ± 0.014	1.08 ± 0.042	1.1 ± 0.096	1.02 ± 0.055	1.1 ± 0.07
TUBB3 (UniProt Q13509)	1.02 ± 0.058	0.997 ± 0.041	0.992 ± 0.041	0.986 ± 0.042	0.991 ± 0.015	1.02 ± 0.038
ADAM9 (UniProt Q13443)	0.888 ± 0.14	0.957 ± 0.13	0.87 ± 0.046	0.992 ± 0.1	0.902 ± 0.049	0.908 ± 0.023
UniProt Q04656 and related entries	0.994 ± 0.023	1.01 ± 0.067	1.01 ± 0.063	0.986 ± 0.065	0.96 ± 0.029	0.958 ± 0.039
UniProt Q13043	0.971 ± 0.014	0.965 ± 0.019	0.938 ± 0.03	0.979 ± 0.036	0.944 ± 0.039	0.926 ± 0.048
UniProt Q13724 and related entries	1.1 ± 0.12	1.06 ± 0.085	1.08 ± 0.088	1.01 ± 0.15	1.1 ± 0.083	1.08 ± 0.077
EXOSC10 (UniProt Q01780)	1.08 ± 0.022	1.08 ± 0.017	1.155 ± 0.0069	1.21 ± 0.035	1.26 ± 0.024	1.31 ± 0.051
Q13888 and related entries (UniProt Q6P1K8+Q13888)	1.1 ± 0.074	1.11 ± 0.031	1.15 ± 0.057	1.11 ± 0.078	1.15 ± 0.058	1.17 ± 0.08
UniProt Q09666 and related entries	0.972 ± 0.055	0.96 ± 0.026	0.954 ± 0.037	0.998 ± 0.051	0.925 ± 0.016	0.94 ± 0.014

Taken from above.
NP40-soluble protein abundance (concentration: 6mM) with EXOSC10 (UniProt Q01780) is entered as 1.21 ± 0.035
NP40-soluble protein abundance (concentration: 1mM) with UniProt Q01085 and related entries is entered as 0.974 ± 0.031
